Results deposited as PubChem BioAssay AID493246 (Drosophila RNAi Screening Center, 2011).

- Screen: 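Genome-wide search for dsRNAs that reduce cell number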 (primary screen)
- Cells: Drosophila Kc and S2R+ cells
- Reagents: long dsRNA against Drosophila genes
- Detection: 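Raw, unnormalised count of remaining cells in each well; per-plate z-scores of cell number underlie the calls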
- Direction: Kc cell number and S2R+ cell number: higher = more cells remaining
- Call rule: 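Active when the per-plate z-score of cell number is 3 or more in the direction of fewer cells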
In all, the deposit lists about 21,000 reagents; shown is a random part of those that have a named target and a result. Over the whole deposit, 429 (2%) were called active. 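Values are raw and not normalised between plates; calls rest on per-plate z-scores that were not deposited.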 A number with no mark means an inactive call. Reagents against one gene are numbered here. A plus sign joins genes that one reagent is predicted to hit. Not stated in the record: the amount of reagent, the time to read-out.

| gene | reagent | Kc cell number, rep 1 | Kc cell number, rep 2 | S2R+ cell number, rep 1 | S2R+ cell number, rep 2 |
| --- | --- | --- | --- | --- | --- |
| O-fut2 | 1 | 4.92e5 | – | 8.30e5 | – |
| CG9643 | 1 | 1.52e6 | 1.53e6 | 1.10e6 | 1.34e6 |
| CG43740 | 1 | 1.68e6 | 1.59e6 | 1.01e6 | 1.16e6 |
| CG3857 | 1 | 5.44e5 | – | 7.75e5 | – |
| p-cup | 1 | 1.48e6 | 1.47e6 | 1.05e6 | 1.16e6 |
| CG14269 | 1 | 1.53e6 | 1.56e6 | 1.10e6 | 1.24e6 |
| CG7156 | 1 | 1.58e6 | 1.61e6 | 1.30e6 | 1.38e6 |
| CG6878 | 1 | 1.52e6 | 1.54e6 | 1.26e6 | 1.41e6 |
| CG13124 | 1 | 1.27e6 | 1.30e6 | 1.08e6 | 1.20e6 |
| Dlish | 1 | 1.71e6 | 1.75e6 | 1.23e6 | 1.39e6 |
| CG33639 | 1 | 1.46e6 | 1.40e6 | 1.05e6 | 1.19e6 |
| CG34286 | 1 | 1.69e6 | 1.81e6 | 1.12e6 | 1.10e6 |
| l(2)03659 | 1 | 1.47e6 | 1.57e6 | 1.26e6 | 1.39e6 |
| l(2)03659 | 2 | 1.53e6 | 1.57e6 | 1.31e6 | 1.39e6 |
| Lgr1 | 1 | 1.35e6 | 1.40e6 | 1.04e6 | 1.16e6 |
| CG11634 | 1 | 1.48e6 | 1.54e6 | 1.30e6 | 3.47e5 |
| Diedel3 | 1 | 1.43e6 | 1.51e6 | 1.04e6 | 1.10e6 |
| CG44837 | 1 | 1.29e6 | 1.34e6 | 9.45e5 | 1.06e6 |
| CG44837 | 2 | 1.38e6 | 1.35e6 | 1.20e6 | 1.35e6 |
| CG6978 | 1 | 1.67e6 | 1.75e6 | 1.16e6 | 1.28e6 |
| PCB | 1 | 1.24e6 | 1.32e6 | 1.07e6 | 1.16e6 |
| CG17821 | 1 | 1.66e6 | 1.64e6 | 1.27e6 | 1.34e6 |
| CG10469 | 1 | 1.37e6 | 1.30e6 | 1.11e6 | 1.17e6 |
| Polr2M | 1 | 1.64e6 | 1.62e6 | 1.12e6 | 1.20e6 |
| qsm | 1 | 6.83e5 | – | 7.92e5 | – |
| qsm | 2 | 1.61e6 | 1.48e6 | 1.01e6 | 1.31e6 |
| Gr58c | 1 | 1.51e6 | 1.59e6 | 1.23e6 | 3.82e5 |
| Rpn5 | 1 | 1.21e6 | 1.30e6 | 1.01e6 | 1.09e6 |
| nonA-l | 1 | 1.45e6 | 1.47e6 | 1.02e6 | 1.08e6 |
| Rad51D | 1 | 1.54e6 | 1.58e6 | 1.26e6 | 1.32e6 |
| Polr1H | 1 | 1.42e6 | 1.45e6 | 9.88e5 | 1.05e6 |
| CG30325 | 1 | 5.87e5 | – | 8.63e5 | – |
| Osi15 | 1 | 1.75e6 | 1.87e6 | 1.30e6 | 1.44e6 |
| CG34149 | 1 | 1.44e6 | 1.55e6 | 1.12e6 | 1.14e6 |
| Targ | 1 | 1.54e6 | 1.48e6 | 1.13e6 | 1.15e6 |
| CG11269 | 1 | 1.59e6 | 1.73e6 | 1.37e6 | 4.13e5 |
| COX7AL | 1 | 1.57e6 | 1.77e6 | 1.33e6 | 1.45e6 |
| Hsl | 1 | 1.37e6 | 1.43e6 | 1.11e6 | 1.20e6 |
| CG6429 | 1 | 1.65e6 | 1.68e6 | 1.30e6 | 1.53e6 |
| Epg5 | 1 | 1.21e6 | 1.21e6 | 1.12e6 | 1.22e6 |
| FIG4 | 1 | 8.84e5 | 1.31e6 | 5.16e5 | 6.39e5 |
| CG31460 | 1 | 1.45e6 | 1.53e6 | 1.31e6 | 1.36e6 |
| GILT1 | 1 | 1.49e6 | 1.67e6 | 1.30e6 | 1.73e6 |
| CG11635 + spaw | 1 | 1.48e6 | 1.54e6 | 1.26e6 | 1.37e6 |
| Cow | 1 | 1.38e6 | 1.36e6 | 1.01e6 | 1.04e6 |
| Zif | 1 | 1.58e6 | 1.60e6 | 1.42e6 | 1.44e6 |
| Odj | 1 | 1.54e6 | 1.56e6 | 1.17e6 | 1.27e6 |
| mthl9 | 1 | 1.48e6 | 1.24e6 | 1.07e6 | 1.32e6 |
| BaraC | 1 | 6.27e5 | – | 9.18e5 | – |
| sav | 1 | 1.49e6 | 1.40e6 | 1.00e6 | 1.05e6 |
| sav | 2 | 1.43e6 | 1.39e6 | 9.71e5 | 1.07e6 |
| Snm1 | 1 | 1.49e6 | 1.60e6 | 1.19e6 | 1.26e6 |
| Nup93-1 | 1 | 4.89e5 | – | 7.86e5 | – |
| mus81 | 1 | 1.47e6 | 1.44e6 | 9.90e5 | 1.07e6 |
| mus81 | 2 | 1.48e6 | 1.48e6 | 1.02e6 | 1.12e6 |
| Tsp42Ed | 1 | 1.71e6 | 1.72e6 | 1.34e6 | 1.51e6 |
| CG33143 | 1 | 1.56e6 | 1.38e6 | 1.32e6 | 1.29e6 |
| CG33143 | 2 | 1.49e6 | 1.53e6 | 1.26e6 | 1.28e6 |
| CG34386 | 1 | 1.57e6 | 1.54e6 | 8.97e5 | 9.49e5 |
| CG34386 | 2 | 1.54e6 | 1.64e6 | 1.20e6 | 1.36e6 |
| BBS8 | 1 | 1.50e6 | 1.53e6 | 1.01e6 | 1.20e6 |
| CG31960 | 1 | 1.56e6 | 1.49e6 | 1.21e6 | 1.42e6 |
| Pburs | 1 | 1.64e6 | 1.64e6 | 1.35e6 | 1.47e6 |
| mei-P26 | 1 | 1.28e5 (active) | – | 3.53e5 | – |
| CG13560 | 1 | 1.70e6 | 1.74e6 | 1.26e6 | 1.45e6 |
| sad | 1 | 1.58e6 | 1.65e6 | 1.33e6 | 1.48e6 |
| Nulp1 | 1 | 1.43e6 | 1.48e6 | 1.35e6 | 1.23e6 |
| Atg10 + CG12822 | 1 | 1.66e6 | 1.60e6 | 1.35e6 | 1.51e6 |
| Prosalpha4 | 1 | 1.46e6 | 1.52e6 | 9.55e5 | 1.13e6 |
| lwr | 1 | 1.30e6 | 1.31e6 | 6.60e5 | 7.51e5 |
| Sbf | 1 | 1.43e6 | 1.48e6 | 1.18e6 | 1.22e6 |
| CG42816 + CG42815 | 1 | 1.31e6 | 1.42e6 | 1.25e6 | 1.32e6 |
| CG32579 | 1 | 1.51e6 | 1.53e6 | 1.20e6 | 1.29e6 |
| Mondo | 1 | 1.29e6 | 1.34e6 | 1.01e6 | 1.20e6 |
| Mondo | 2 | 1.46e6 | 1.55e6 | 1.31e6 | 4.98e5 |

Limited to “Kc cell number, rep 1” (7 entries from above):
CG33143 #2	1.49e6
CG34386 #1	1.57e6
CG34386 #2	1.54e6
BBS8	1.50e6
CG31960	1.56e6
Pburs	1.64e6
mei-P26	1.28e5 (active)
